Measurements published in publication PMC8556303.
Results are given in words; binding and its absence hold for the method and conditions named. In cells and extracts the contact can be indirect. Some binding calls cover weakened binding; strength is not graded here.

Target: T1, AnnexinA7 (human (endogenous in Huh-7 and Hep3B)) (UniProt P20073)
T1 sequence: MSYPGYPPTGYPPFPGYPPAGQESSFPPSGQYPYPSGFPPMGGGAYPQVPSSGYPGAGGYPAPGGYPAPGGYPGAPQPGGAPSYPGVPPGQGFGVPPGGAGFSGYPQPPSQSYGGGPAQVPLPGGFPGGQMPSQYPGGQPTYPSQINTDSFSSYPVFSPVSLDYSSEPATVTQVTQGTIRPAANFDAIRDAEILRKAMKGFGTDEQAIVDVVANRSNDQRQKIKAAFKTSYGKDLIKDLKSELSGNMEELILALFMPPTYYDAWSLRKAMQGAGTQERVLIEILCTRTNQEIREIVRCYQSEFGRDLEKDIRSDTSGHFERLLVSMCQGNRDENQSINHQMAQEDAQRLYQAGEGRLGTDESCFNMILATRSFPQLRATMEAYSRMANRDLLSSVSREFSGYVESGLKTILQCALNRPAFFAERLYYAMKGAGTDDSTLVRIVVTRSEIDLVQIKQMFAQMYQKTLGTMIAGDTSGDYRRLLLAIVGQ
Assay: co-IP; lysates of Huh-7 and Hep3B cells (IP lysis buffer) incubated with primary antibodies overnight at 4 °C, protein A/G agarose beads, eluates immunoblotted; which antibody precipitated is not told

B1: Soluble Resistance-related Calcium-binding protein (Sorcin) (protein, UniProt P30626 1-198)
chain: MAYPGHPGAGGGYYPGGYGGAPGGPAFPGQTQDPLYGYFAAVAGQDGQIDADELQRCLTQSGIAGGYKPFNLETCRLMVSMLDRDMSGTMGFNEFKELWAVLNGWRQHFISFDTDRSGTVDPQELQKALTTMGFRLSPQAVNSIAKRYSTNGKITFDDYIACCVKLRALTDSFRRRDTAQQGVVNFPYDDFIQCVMSV
Question: For B1, which binding is on record?
Answer: binds
